Numbering of substitutions follows the chain as printed. Numbers in names are those of the source. No constants are given. Whether binding was seen depends on the method and setting. In cells and extracts the contact can be indirect. Some entries that bind do so weakly or less than the wild type.
Molecular target: Human Cbl-b (ectopically expressed) (human) (UniProt Q13191)
Test: co-IP; ectopically expressed proteins in Jurkat cells (WT, CBLB knockdown clone sh1, or VAV1-/- cells expressing Vav1 proteins), 36 hr after electroporation; lysis in 10 mM Tris-HCl pH 8.0, 150 mM NaCl, 1% Triton X-100; 2 hr at 4°C with antibodies to Cbl-b or ICN1, Gammabind G-Sepharose; immunoblot

The chains behind the UniProt entries cited, without tags or fusion partners.
UniProt Q13191: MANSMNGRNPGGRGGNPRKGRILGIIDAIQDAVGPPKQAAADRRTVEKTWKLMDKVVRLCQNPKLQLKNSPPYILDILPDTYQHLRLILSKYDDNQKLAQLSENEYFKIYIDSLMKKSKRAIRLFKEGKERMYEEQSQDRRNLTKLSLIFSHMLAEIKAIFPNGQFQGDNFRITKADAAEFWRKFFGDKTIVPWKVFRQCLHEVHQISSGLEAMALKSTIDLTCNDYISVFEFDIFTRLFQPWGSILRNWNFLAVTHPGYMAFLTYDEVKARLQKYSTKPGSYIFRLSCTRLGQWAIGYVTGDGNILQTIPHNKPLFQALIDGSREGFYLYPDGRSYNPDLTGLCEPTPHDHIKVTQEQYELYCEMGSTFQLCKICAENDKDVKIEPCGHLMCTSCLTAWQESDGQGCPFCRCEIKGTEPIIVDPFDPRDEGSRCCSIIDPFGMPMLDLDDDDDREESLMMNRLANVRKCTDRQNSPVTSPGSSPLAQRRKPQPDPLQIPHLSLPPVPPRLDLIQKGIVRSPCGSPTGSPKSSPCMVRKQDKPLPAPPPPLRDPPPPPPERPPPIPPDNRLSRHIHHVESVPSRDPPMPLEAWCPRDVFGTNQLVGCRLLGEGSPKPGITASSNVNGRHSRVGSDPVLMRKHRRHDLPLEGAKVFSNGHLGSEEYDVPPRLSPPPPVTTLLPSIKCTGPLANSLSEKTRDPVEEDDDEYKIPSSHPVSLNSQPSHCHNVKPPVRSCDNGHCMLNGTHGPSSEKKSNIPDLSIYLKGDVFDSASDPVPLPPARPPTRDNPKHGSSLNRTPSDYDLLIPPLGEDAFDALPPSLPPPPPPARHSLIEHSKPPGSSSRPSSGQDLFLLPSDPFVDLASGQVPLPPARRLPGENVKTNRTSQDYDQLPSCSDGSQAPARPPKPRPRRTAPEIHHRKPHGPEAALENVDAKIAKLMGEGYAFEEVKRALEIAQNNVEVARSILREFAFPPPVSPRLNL

B1: Mouse Vav1^WT (ectopically expressed) (protein, UniProt P27870 1-845)
chain: MELWRQCTHWLIQCRVLPPSHRVTWEGAQVCELAQALRDGVLLCQLLNNLLPQAINLREVNLRPQMSQFLCLKNIRTFLSTCCEKFGLKRSELFEAFDLFDVQDFGKVIYTLSALSWTPIAQNKGIMPFPTEDSALNDEDIYSGLSDQIDDTAEEDEDLYDCVENEEAEGDEIYEDLMRLESVPTPPKMTEYDKRCCCLREIQQTEEKYTDTLGSIQQHFMKPLQRFLKPQDMETIFVNIEELFSVHTHFLKELKDALAGPGATTLYQVFIKYKERFLVYGRYCSQVESASKHLDQVATAREDVQMKLEECSQRANNGRFTLRDLLMVPMQRVLKYHLLLQELVKHTQDATEKENLRLALDAMRDLAQCVNEVKRDNETLRQITNFQLSIENLDQSLANYGRPKIDGELKITSVERRSKTDRYAFLLDKALLICKRRGDSYDLKASVNLHSFQVRDDSSGERDNKKWSHMFLLIEDQGAQGYELFFKTRELKKKWMEQFEMAISNIYPENATANGHDFQMFSFEETTSCKACQMLLRGTFYQGYRCYRCRAPAHKECLGRVPPCGRHGQDFAGTMKKDKLHRRAQDKKRNELGLPKMEVFQEYYGIPPPPGAFGPFLRLNPGDIVELTKAEAEHNWWEGRNTATNEVGWFPCNRVHPYVHGPPQDLSVHLWYAGPMERAGAEGILTNRSDGTYLVRQRVKDTAEFAISIKYNVEVKHIKIMTSEGLYRITEKKAFRGLLELVEFYQQNSLKDCFKSLDTTLQFPYKEPERRAISKPPAGSTKYFGTAKARYDFCARDRSELSLKEGDIIKILNKKGQQGWWRGEIYGRIGWFPSNYVEEDYSEYC
- binding: binds

B2: Mouse Vav1^G691V (protein, UniProt P27870 1-845)
chain: B1 chain with G691V
- binding: binds
